Reference: the supplement of paper PMC11732987, “Enantioselective OTUD7B fragment discovery through chemoproteomics screening and high-throughput optimisation” (Communications Chemistry, 2025)
The other results are listed elsewhere or left out. The data scatter; read single values as rough.

Sequences of proteins named here, by UniProt entry; tags and fusion partners are left off. A change or cut given only in a name is not applied to a line headed by its entry. Residues count along the entry.
UniProt Q8WUA4: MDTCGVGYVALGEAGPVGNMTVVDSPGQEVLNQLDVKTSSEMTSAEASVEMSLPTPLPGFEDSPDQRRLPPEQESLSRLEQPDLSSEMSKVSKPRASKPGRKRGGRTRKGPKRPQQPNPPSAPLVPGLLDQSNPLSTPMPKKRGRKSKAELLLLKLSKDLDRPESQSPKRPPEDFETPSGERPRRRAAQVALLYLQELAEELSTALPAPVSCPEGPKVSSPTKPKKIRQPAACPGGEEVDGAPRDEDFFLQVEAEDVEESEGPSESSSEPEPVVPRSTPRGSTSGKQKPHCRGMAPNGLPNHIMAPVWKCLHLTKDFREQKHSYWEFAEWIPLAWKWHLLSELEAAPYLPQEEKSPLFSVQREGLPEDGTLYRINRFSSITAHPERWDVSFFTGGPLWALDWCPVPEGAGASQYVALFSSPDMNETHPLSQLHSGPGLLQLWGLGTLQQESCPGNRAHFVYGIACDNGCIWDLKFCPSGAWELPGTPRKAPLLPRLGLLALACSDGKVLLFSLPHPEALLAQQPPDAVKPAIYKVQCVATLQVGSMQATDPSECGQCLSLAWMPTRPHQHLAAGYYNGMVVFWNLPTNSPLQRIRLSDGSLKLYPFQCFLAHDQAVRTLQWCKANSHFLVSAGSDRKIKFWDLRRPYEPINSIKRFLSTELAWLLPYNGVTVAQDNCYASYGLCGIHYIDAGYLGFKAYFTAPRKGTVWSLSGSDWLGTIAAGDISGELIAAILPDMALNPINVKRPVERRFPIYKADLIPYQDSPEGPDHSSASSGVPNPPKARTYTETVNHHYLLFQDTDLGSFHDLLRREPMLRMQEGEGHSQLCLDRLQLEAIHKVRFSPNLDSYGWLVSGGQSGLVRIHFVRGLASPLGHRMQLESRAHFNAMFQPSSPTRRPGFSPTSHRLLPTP
UniProt Q8TF76: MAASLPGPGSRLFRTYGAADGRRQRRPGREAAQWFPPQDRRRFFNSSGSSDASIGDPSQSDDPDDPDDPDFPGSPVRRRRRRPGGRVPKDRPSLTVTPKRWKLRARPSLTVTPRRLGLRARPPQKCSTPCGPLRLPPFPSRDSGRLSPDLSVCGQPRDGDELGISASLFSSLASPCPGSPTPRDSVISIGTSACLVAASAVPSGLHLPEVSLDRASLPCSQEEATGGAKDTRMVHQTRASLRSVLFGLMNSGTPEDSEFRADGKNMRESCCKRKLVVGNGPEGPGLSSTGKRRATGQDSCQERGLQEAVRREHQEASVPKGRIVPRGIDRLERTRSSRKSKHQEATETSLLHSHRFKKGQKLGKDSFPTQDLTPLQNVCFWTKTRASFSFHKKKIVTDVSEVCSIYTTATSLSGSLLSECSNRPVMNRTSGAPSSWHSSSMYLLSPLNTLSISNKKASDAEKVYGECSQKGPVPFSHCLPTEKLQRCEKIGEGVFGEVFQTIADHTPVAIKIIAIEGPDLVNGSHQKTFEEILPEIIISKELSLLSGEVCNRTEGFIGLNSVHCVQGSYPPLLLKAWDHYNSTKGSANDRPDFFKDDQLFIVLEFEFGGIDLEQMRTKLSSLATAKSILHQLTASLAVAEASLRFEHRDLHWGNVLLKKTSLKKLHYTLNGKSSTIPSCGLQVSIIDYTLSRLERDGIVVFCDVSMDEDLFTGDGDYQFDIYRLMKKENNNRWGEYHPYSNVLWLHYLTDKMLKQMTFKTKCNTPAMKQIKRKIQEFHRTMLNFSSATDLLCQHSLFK
UniProt Q96FZ2: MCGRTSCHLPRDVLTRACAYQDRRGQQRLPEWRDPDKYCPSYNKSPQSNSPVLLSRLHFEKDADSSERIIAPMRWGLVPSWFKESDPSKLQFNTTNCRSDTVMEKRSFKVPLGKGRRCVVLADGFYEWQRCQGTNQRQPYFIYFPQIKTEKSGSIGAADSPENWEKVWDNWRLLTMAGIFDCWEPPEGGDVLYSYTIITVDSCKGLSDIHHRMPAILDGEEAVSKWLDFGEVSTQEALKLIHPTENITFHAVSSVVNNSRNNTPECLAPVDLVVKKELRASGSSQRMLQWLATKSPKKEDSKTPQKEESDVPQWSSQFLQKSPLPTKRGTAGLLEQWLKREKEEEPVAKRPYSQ
UniProt Q9NRZ9: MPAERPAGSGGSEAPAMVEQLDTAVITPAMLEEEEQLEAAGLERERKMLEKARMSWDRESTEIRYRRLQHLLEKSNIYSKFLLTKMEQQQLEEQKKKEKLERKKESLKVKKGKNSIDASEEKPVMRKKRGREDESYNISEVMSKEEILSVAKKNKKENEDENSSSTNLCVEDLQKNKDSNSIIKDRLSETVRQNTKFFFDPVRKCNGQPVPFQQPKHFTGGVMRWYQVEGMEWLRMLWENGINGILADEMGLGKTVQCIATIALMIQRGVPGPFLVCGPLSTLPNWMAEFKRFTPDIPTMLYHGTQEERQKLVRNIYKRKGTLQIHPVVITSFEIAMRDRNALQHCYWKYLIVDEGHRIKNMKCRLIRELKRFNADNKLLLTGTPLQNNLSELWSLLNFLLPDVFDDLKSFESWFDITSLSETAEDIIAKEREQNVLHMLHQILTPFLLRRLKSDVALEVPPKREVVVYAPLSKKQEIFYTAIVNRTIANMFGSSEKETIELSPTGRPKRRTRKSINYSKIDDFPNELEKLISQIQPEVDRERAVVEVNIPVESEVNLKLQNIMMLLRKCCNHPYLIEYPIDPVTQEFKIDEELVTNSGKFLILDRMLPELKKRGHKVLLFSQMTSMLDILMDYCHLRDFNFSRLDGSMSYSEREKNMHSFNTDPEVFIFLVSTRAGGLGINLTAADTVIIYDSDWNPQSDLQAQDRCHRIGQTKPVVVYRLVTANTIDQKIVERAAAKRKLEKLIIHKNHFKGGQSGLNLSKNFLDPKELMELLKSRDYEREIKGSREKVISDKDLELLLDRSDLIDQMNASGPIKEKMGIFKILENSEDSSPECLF
UniProt P51858, 106-126: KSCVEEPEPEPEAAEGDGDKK
UniProt Q15751, 1427-1448: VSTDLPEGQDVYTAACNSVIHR
UniProt P40939: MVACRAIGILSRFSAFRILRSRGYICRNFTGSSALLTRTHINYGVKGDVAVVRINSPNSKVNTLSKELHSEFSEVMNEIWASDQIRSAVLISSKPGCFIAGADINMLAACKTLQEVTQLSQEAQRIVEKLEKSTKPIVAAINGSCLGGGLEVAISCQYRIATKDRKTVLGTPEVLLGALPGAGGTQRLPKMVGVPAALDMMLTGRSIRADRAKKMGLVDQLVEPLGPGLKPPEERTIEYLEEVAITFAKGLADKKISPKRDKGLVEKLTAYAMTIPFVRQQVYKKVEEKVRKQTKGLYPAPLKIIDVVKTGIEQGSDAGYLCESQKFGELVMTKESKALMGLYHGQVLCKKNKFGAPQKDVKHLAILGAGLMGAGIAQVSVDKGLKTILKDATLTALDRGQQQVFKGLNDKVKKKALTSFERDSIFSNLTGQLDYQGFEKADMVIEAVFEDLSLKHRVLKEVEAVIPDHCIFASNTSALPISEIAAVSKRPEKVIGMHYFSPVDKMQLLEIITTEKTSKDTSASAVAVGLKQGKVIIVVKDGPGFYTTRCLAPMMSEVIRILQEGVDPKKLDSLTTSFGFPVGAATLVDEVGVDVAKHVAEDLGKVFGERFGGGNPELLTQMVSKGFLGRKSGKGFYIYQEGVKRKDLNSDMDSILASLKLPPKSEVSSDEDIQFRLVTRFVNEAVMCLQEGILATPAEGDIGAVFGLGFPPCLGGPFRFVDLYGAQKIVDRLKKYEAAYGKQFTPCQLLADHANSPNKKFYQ
UniProt Q14527: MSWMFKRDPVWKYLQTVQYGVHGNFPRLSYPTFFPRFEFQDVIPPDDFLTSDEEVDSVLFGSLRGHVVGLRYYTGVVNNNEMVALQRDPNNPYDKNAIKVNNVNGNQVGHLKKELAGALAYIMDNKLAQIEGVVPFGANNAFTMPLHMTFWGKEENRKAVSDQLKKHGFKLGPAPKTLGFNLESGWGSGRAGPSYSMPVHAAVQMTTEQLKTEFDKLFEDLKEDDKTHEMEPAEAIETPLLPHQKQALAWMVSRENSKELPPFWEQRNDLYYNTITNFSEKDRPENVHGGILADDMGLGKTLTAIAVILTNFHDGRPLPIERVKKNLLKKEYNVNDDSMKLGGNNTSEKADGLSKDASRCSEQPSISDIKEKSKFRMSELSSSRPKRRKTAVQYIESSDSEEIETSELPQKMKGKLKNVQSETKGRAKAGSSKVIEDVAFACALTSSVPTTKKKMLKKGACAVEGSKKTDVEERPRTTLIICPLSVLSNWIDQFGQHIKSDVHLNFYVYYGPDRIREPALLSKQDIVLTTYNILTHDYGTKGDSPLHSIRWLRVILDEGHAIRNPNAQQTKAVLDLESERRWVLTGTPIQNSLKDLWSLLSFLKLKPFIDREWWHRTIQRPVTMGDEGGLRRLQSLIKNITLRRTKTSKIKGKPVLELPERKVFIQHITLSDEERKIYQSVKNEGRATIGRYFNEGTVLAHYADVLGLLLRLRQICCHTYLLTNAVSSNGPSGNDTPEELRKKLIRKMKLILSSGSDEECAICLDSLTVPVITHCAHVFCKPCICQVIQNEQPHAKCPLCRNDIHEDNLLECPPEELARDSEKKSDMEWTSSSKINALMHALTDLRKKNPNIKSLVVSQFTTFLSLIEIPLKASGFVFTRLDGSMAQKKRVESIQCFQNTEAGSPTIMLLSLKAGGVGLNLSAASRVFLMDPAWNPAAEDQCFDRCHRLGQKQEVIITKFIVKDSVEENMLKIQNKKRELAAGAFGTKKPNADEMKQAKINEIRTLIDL
UniProt Q86VS8, 429-464: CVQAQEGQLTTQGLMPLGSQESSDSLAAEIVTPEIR
UniProt Q7Z4Q2: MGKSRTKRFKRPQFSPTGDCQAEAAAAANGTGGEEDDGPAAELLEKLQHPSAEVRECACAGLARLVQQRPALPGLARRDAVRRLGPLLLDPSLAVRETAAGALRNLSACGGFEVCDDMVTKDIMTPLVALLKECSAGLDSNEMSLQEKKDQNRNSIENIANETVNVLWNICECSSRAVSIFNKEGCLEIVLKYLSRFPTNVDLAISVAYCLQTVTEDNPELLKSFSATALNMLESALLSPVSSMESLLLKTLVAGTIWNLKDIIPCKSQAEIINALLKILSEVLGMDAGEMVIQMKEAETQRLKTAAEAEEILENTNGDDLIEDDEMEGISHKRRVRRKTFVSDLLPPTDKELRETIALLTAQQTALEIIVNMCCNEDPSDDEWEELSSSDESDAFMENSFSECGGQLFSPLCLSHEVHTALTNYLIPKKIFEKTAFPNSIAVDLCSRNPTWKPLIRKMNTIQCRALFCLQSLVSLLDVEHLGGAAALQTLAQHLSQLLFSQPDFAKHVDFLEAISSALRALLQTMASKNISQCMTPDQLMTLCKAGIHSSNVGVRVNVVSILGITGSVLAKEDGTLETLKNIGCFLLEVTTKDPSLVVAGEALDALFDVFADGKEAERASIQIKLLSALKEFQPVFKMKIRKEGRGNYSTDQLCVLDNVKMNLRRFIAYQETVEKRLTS
UniProt P35367, whole entry, looked up: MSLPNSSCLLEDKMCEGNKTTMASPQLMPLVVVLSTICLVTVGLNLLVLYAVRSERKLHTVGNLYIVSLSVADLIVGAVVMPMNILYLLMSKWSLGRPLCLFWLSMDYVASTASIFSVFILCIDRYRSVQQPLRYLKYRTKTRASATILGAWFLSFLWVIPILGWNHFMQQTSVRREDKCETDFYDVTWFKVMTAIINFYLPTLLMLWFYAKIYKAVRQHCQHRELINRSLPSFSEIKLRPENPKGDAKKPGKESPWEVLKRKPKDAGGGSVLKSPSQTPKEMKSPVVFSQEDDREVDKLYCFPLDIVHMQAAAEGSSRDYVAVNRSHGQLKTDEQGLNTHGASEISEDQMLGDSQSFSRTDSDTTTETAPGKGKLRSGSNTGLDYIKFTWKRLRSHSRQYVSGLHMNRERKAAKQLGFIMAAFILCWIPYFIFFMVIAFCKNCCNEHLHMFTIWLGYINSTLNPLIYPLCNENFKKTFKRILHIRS
UniProt Q9UGU5: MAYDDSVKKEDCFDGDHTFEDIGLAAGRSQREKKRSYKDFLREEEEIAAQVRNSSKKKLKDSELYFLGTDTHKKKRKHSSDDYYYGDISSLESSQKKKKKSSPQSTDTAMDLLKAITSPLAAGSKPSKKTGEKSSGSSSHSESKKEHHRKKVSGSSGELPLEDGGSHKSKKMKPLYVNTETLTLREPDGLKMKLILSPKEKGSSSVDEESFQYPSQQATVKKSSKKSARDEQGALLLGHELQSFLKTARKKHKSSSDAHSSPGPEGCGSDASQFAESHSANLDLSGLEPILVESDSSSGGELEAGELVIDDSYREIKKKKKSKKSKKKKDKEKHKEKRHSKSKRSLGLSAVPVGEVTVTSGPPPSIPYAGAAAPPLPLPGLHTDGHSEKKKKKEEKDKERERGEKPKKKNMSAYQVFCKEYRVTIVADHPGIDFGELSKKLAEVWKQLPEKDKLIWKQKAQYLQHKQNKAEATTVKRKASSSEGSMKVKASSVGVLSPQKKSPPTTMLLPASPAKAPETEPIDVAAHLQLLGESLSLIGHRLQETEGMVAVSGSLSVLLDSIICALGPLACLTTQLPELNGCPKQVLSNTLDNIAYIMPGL
UniProt Q96MH2, 1-22: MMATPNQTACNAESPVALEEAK

compound: ClCC(=O)N[C@H]1CCCc2ccccc12; assay: log2 mean competition ratio of IA-DTB cysteine labelling (DMSO/compound) (log2 ratio); higher = stronger cysteine engagement by compound; conditions: 50 µM; treatment time: 4 h; cell line lysate: HEK293T
Experimental: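 IA-DTB competitive cysteine chemoproteomics in HEK293T RIPA lysate. Lysates were treated with compound 29 or 30 at 50 or 200 µM for 4 h, then IA-DTB (500 µM, 1 h), trypsin-digested, NeutrAvidin-enriched and analysed by diaPASEF. Competition ratio = intensity DMSO / intensity compound (n=4 treated, n=64 DMSO); binding: mean log2 CR ≥ 1 and p ≤ 0.05 plus QC filters. Target is the cysteine site.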

| Target | log2 mean competition ratio |
| --- | --- |
| GTF2E2 C208 (UniProt P29084) | 0.531 |
| HBS1L C529 (UniProt Q9Y450) | -0.426 |
| GTPBP4 C174 (UniProt Q9BZE4) | 0.0378 |
| GTF2A2 C98 (UniProt P52657) | 0.163 |
| HIRA C1007 (UniProt P54198) | -0.381 |
| GTF3C2 C828 (UniProt Q8WUA4) | -0.401 |
| HASPIN C762 (UniProt Q8TF76) | 0.0108 |
| HMCES C39 (UniProt Q96FZ2) | -0.135 |
| HECW2 C224 (UniProt Q9P2P5) | 0.315 |
| HAUS6 C208 (UniProt Q7Z4H7) | -0.228 |
| HELLS C346 (UniProt Q9NRZ9) | 0.421 |
| GTF3C2 C503 (UniProt Q8WUA4) | -0.328 |
| GTF3C4 C764 (UniProt Q9UKN8) | 0.00585 |
| GUF1 C338 (UniProt Q8N442) | 0.0212 |
| HDGFL2 C631 (UniProt Q7Z4V5) | 0.107 |
| GTPBP6 C99 (UniProt O43824) | -0.0138 |
| HOXA11 C200 | 0.0869 |
| HDGF C108 (UniProt P51858) | -0.0787 |
| GTF3C1 C1471 (UniProt Q12789) | 0.303 |

| Target | log2 mean competition ratio |
| --- | --- |
| HERC1 C1442 (UniProt Q15751) | -0.0463 |
| HEATR6 C720 (UniProt Q6AI08) | -0.572 |
| HADHA C322 (UniProt P40939) | -0.288 |
| HLTF C942 (UniProt Q14527) | 0.508 |
| HECTD4 C3836 | -0.0542 |
| HASPIN C219 (UniProt Q8TF76) | -0.313 |
| GTSE1 C478 (UniProt Q9NYZ3) | 0.556 |
| GTPBP4 C336 (UniProt Q9BZE4) | -0.149 |
| HOOK3 C429 (UniProt Q86VS8) | 0.407 |
| HEATR3 C655 (UniProt Q7Z4Q2) | 0.0676 |
| H1-7 C53 (UniProt P35367) | 0.289 |
| HNRNPC C46 (UniProt P07910) | 0.25 |
| HMGXB4 C418 (UniProt Q9UGU5) | 0.443 |
| HEATR5B C1693 (UniProt Q9P2D3) | 0.249 |
| HEXIM2 C10 (UniProt Q96MH2) | 0.0378 |
| HERC1 C4837 (UniProt Q15751) | 0.253 |
| HNRNPA1 C175 | -0.134 |
| HNRNPM C694 | 0.289 |

same assay, conditions: 200 µM; treatment time: 4 h; cell line lysate: HEK293T

| Target | log2 mean competition ratio |
| --- | --- |
| GTF2E2 C208 (UniProt P29084) | 0.114 |
| HBS1L C529 (UniProt Q9Y450) | 0.0087 |
| GTPBP4 C174 (UniProt Q9BZE4) | 0.263 |
| GTF2A2 C98 (UniProt P52657) | -0.00296 |
| HIRA C1007 (UniProt P54198) | -0.159 |
| GTF3C2 C828 (UniProt Q8WUA4) | -0.105 |
| HASPIN C762 (UniProt Q8TF76) | 0.0154 |
| HMCES C39 (UniProt Q96FZ2) | -0.141 |
| HECW2 C224 (UniProt Q9P2P5) | -0.44 |
| HAUS6 C208 (UniProt Q7Z4H7) | 0.0376 |
| HELLS C346 (UniProt Q9NRZ9) | -0.19 |
| GTF3C2 C503 (UniProt Q8WUA4) | -0.0068 |
| GTF3C4 C764 (UniProt Q9UKN8) | 0.228 |
| GUF1 C338 (UniProt Q8N442) | -0.0963 |
| HDGFL2 C631 (UniProt Q7Z4V5) | -0.0058 |
| GTPBP6 C99 (UniProt O43824) | 0.0281 |
| HOXA11 C200 | 0.175 |
| HDGF C108 (UniProt P51858) | -0.123 |
| GTF3C1 C1471 (UniProt Q12789) | -0.00426 |

| Target | log2 mean competition ratio |
| --- | --- |
| HERC1 C1442 (UniProt Q15751) | -0.124 |
| HEATR6 C720 (UniProt Q6AI08) | -0.0239 |
| HADHA C322 (UniProt P40939) | -0.133 |
| HLTF C942 (UniProt Q14527) | 0.305 |
| HECTD4 C3836 | 0.216 |
| HASPIN C219 (UniProt Q8TF76) | -0.156 |
| GTSE1 C478 (UniProt Q9NYZ3) | 0.00787 |
| GTPBP4 C336 (UniProt Q9BZE4) | 0.207 |
| HOOK3 C429 (UniProt Q86VS8) | -0.434 |
| HEATR3 C655 (UniProt Q7Z4Q2) | 0.246 |
| H1-7 C53 (UniProt P35367) | 0.0524 |
| HNRNPC C46 (UniProt P07910) | -0.561 |
| HMGXB4 C418 (UniProt Q9UGU5) | 0.0982 |
| HEATR5B C1693 (UniProt Q9P2D3) | -0.19 |
| HEXIM2 C10 (UniProt Q96MH2) | -0.0405 |
| HERC1 C4837 (UniProt Q15751) | 0.0117 |
| HNRNPA1 C175 | -0.167 |
| HNRNPM C694 | 0.0206 |
